{"source": "patent US20110086026A1", "about": "(ROCHE PALO ALTO, published 2011)", "target": "Cynomolgus IL-13Rα1 expressed in transfected Ba/F3 cells (Cynomolgus)", "assay": "FACS on transfected Ba/F3 cells, 10 µg/ml", "note": "No constants are given. Whether binding was seen depends on the method and setting. Some results given as binding are weak or reduced against the parent protein; the word gives no strength.", "data": [{"binder": "HuMab LC5002-002 (antibody, human IgG1, V domains shown, Human IgG1 kappa from a HuMab mouse hybridoma; Only the variable domains are tied to this antibody; also called hu-MAB<h-IL-13R alpha>LC.5002-002 (DSM ACC2709)) VH: EVQLLESGGGLVQPGGSLRLSCAASGFTFNIYAMNWVRQAPGKGLEWVSVISGRGITTYYADSVKGRFTISRDNSKNTLYLQMNSLRADDTAVYYCAKGSSSWTDFDYWGQGTLVTVSS VL: DIQMTQSPSSLSASVGDRVTITCRASQGISRWVAWYQQKPEKAPKSLIYAASSLQSGVPSRFSGSGSGTDFTLTISSLQPEDFATYYCQQYNSYPWTFGQGTKVEIK", "values": [{"measurement": "binding", "result": "binds"}]}]}
